The results in this text go back to paper PMC9776037.

The chains behind the UniProt entries cited, without tags or fusion partners. Where a name states a change or a piece, a line headed by the entry shows the natural chain unless it says otherwise. Residues count along the entry.
UniProt Q05793, residues 22-3707: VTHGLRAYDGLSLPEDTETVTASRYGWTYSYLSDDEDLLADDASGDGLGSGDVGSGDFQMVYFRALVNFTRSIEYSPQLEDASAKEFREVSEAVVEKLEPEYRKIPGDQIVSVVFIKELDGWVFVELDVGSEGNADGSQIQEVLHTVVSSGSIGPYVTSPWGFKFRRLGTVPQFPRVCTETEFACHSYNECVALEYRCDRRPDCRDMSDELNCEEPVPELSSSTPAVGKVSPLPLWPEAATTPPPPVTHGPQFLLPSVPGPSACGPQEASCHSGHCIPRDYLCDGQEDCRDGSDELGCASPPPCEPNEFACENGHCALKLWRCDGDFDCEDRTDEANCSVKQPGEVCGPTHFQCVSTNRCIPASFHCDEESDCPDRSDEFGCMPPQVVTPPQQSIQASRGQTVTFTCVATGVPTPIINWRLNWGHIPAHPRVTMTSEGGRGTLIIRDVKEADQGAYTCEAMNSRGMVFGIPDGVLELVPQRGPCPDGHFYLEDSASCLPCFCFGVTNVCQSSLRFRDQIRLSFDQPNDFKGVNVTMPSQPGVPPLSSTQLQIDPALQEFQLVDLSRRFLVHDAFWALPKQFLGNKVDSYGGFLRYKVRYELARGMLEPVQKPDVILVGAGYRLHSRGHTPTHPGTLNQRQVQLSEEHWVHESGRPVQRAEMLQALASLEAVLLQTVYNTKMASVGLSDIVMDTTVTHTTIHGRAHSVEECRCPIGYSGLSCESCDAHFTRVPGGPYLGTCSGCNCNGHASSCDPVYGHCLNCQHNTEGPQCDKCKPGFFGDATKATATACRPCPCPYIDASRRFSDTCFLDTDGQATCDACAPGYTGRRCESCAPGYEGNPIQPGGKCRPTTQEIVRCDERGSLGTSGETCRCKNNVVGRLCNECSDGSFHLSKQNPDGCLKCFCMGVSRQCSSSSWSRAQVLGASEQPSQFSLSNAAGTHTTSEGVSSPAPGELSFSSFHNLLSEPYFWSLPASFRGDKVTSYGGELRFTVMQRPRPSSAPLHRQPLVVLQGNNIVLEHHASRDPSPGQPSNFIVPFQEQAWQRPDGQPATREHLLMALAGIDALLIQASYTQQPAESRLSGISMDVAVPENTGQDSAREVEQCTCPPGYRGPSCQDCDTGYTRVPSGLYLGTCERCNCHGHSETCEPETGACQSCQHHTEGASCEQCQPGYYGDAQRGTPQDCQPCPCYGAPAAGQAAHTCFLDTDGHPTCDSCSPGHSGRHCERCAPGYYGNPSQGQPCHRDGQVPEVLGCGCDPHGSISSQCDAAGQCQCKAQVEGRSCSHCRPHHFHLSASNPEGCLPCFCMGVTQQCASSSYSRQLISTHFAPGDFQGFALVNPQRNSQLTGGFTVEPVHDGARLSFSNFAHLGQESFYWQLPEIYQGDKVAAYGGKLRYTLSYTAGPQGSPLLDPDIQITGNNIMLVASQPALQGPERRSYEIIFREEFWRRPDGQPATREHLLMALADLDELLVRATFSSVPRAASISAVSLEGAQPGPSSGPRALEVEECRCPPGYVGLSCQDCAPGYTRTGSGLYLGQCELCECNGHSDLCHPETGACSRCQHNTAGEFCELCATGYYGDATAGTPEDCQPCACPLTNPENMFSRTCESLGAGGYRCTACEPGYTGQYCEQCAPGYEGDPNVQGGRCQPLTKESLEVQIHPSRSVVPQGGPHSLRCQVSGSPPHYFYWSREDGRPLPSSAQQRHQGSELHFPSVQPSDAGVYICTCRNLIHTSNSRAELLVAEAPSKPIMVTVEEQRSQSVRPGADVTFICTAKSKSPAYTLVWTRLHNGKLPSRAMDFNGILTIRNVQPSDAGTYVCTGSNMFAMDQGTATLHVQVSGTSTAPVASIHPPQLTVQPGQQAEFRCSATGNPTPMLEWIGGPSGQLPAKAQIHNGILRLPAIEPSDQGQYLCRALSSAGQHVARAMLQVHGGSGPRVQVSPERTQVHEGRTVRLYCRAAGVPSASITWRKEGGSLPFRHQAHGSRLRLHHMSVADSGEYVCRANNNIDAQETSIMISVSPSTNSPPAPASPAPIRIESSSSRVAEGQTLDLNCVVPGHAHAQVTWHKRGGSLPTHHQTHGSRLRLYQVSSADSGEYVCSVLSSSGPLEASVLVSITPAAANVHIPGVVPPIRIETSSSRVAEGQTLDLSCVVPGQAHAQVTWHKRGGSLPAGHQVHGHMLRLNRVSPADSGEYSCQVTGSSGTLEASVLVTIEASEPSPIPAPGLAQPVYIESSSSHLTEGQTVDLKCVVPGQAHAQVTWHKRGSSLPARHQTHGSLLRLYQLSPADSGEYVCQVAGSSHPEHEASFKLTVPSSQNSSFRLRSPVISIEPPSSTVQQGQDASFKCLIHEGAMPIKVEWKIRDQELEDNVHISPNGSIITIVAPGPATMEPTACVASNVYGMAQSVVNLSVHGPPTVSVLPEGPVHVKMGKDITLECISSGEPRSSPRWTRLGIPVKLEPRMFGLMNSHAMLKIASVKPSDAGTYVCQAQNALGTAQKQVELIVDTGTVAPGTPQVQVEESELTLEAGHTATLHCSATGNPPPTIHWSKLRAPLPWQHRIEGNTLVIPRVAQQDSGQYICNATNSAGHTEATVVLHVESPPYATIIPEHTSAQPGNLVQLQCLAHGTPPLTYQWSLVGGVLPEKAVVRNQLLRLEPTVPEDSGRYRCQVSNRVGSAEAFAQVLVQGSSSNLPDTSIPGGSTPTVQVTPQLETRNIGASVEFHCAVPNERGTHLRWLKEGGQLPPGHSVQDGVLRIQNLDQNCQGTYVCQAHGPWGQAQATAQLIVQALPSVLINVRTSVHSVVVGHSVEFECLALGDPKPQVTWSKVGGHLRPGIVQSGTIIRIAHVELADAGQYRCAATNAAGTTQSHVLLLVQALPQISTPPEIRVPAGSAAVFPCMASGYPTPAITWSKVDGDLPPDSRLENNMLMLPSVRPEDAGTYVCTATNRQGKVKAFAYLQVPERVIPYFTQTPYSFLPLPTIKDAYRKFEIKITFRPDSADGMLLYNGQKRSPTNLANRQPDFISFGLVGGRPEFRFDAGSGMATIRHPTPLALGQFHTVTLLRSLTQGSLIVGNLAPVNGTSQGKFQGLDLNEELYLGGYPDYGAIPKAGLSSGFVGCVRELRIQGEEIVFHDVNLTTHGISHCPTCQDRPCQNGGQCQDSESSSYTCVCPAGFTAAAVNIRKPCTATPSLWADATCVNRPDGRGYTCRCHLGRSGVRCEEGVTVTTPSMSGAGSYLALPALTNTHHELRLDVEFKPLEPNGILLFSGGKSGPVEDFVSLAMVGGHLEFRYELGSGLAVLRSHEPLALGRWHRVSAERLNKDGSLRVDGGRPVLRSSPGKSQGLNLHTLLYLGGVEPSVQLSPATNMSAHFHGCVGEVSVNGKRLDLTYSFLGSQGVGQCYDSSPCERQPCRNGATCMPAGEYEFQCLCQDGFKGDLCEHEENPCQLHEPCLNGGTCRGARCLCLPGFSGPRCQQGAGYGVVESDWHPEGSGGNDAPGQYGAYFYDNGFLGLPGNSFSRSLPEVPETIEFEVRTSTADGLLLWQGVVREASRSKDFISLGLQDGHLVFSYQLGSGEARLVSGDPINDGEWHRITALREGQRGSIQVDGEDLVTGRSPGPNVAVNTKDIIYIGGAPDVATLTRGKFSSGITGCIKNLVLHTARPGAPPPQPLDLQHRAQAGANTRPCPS
UniProt O08532, residues 25-1103: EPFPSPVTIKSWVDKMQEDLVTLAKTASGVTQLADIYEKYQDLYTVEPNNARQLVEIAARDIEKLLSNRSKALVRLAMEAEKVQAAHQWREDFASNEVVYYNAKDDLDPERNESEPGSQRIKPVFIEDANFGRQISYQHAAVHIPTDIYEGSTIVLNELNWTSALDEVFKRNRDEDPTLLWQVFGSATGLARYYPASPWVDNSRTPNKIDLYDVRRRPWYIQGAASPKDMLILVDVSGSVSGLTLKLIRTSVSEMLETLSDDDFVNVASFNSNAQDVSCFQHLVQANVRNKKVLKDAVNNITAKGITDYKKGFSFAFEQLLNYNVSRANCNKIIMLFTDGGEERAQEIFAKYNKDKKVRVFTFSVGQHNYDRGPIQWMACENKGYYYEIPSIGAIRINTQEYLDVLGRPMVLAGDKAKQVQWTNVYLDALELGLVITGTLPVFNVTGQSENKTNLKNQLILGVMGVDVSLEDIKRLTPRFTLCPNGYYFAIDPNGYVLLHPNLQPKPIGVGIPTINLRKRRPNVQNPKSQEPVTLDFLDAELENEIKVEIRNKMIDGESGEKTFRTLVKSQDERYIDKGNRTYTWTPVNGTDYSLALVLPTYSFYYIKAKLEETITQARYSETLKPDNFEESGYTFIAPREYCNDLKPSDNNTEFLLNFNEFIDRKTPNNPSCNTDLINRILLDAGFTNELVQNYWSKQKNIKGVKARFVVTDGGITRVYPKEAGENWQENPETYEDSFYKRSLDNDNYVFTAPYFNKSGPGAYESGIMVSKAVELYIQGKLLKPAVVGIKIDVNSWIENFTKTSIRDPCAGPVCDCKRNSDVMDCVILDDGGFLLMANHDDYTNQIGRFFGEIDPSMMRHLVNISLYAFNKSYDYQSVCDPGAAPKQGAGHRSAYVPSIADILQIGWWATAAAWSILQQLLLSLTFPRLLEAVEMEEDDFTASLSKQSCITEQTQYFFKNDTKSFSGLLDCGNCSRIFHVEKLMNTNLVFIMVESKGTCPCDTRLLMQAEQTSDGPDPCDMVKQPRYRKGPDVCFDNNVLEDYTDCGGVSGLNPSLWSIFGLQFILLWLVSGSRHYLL

Results are given in words; binding and its absence hold for the method and conditions named. Binding seen in cells or lysates may run through a third protein. Some results given as binding are weak or reduced against the parent protein; the word gives no strength.

This test deals with Perlecan (PLN), endogenous in MLO-Y4 cells (mouse (endogenous in MLO-Y4)) (UniProt Q05793). Description: co-IP; MLO-Y4 lysates in RIPA buffer; Dynabeads with monoclonal anti-PLN A7L6 antibody or rat IgG, 45 min at RT; blots probed with anti-α2δ1A and anti-PLN A7L6.

“α2δ1 subunit of voltage-sensitive calcium channels, endogenous in MLO-Y4 cells (from UniProt O08532 25-1103)”: the binding result is recorded as “binds”.
